Like-named read-outs stand apart in the source and are kept apart here.
How the values were obtained:
[1] = molecular target: T1, p52 (Homo sapiens, UniProt Q00653); assay: DSE-FRET p52–DNA binding inhibition; type: biochemical
T1 sequence (Q00653 1-454 limits assumed): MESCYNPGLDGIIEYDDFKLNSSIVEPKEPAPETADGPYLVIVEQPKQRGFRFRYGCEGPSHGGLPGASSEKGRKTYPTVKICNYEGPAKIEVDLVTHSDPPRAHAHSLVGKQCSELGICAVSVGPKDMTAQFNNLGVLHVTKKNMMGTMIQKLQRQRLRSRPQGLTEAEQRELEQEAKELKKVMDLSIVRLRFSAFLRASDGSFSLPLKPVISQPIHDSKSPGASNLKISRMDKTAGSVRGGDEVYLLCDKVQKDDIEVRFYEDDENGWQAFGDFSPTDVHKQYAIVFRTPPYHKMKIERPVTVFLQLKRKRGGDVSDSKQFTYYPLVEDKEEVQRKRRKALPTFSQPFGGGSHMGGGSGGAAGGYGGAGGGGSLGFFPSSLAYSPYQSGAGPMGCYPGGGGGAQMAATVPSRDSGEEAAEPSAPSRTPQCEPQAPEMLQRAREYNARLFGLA

Chains of the proteins cited; added tags and fusions are not shown. Residues count along the entry.
UniProt Q04206, 19-306 limits assumed: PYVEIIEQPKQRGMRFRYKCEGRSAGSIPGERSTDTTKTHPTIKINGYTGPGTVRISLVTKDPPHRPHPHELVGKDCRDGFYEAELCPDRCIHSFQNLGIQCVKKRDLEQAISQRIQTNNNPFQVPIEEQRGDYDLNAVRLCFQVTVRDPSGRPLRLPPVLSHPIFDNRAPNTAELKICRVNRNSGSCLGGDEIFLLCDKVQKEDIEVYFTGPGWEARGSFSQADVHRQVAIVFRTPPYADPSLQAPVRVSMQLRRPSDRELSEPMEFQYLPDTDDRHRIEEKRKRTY

[2] = molecular target: RelA (Homo sapiens, UniProt Q04206); assay: DSE-FRET RelA–DNA binding inhibition; type: biochemical

`COc1ccc(-n2nc(C(F)(F)F)cc2-c2ccc(Cl)cc2)cc1` [SC 560] gave an inhibition at 10 µM ([1]; read-out: Kinetic assay @ 10 µM p52 % Inhibition ΔRFU(60 min-0 min)) of -1.45%, an inhibition at 10 µM ([1]; read-out: p52 HTS % Inhibition @ 10 µM) of -0.6% and an inhibition at 10 µM ([1]; read-out: p52 Retest % Inhibition @ 10 µM Avg.) of 0.372%. The inhibition at 10 µM ([1]; read-out: p52 Retest % Inhibition @ 10 µM Run1) was -0.437%, the inhibition at 10 µM ([1]; read-out: p52 Retest % Inhibition @ 10 µM Run2) was 1.2% and the inhibition at 10 µM ([2]; read-out: Kinetic assay @ 10 µM RelA % Inhibition ΔRFU(60 min-0 min)) was -1.21%. It also gave an inhibition at 10 µM ([2]; read-out: RelA HTS % Inhibition @ 10 µM) of 43.7%, an inhibition at 10 µM ([2]; read-out: RelA Retest % Inhibition @ 10 µM Avg.) of -0.562% and an inhibition at 10 µM ([2]; read-out: RelA Retest % Inhibition @ 10 µM Run1) of -1.2%. The inhibition at 10 µM ([2]; read-out: RelA Retest % Inhibition @ 10 µM Run2) was 0.0409%.

Source: article PMC7734590, “Identification of a Selective RelA Inhibitor Based on DSE-FRET Screening Methods” (International Journal of Molecular Sciences, 2020)
